These are yes or no findings as the source states them, for the method shown. In cells and extracts the contact can be indirect. Here binding means that the protein was enriched with, or labelled near, the bait; the list need not be complete. No binding means not detected with the bait.
The substances below were run against T1, control peptide (CD5) (human) (assay: affinity purification with mass spectrometry; peptides immobilized on magnetic beads and used to isolate interacting proteins from Jurkat T-cell lysates; on-filter digest, LC-MS/MS (Q Exactive), MASCOT; only the target purified).
T1 sequence (peptide, biotinylated at the N terminus): HVDNEYSQPPRNS

Chains of the proteins cited; added tags and fusions are not shown.
UniProt P15311: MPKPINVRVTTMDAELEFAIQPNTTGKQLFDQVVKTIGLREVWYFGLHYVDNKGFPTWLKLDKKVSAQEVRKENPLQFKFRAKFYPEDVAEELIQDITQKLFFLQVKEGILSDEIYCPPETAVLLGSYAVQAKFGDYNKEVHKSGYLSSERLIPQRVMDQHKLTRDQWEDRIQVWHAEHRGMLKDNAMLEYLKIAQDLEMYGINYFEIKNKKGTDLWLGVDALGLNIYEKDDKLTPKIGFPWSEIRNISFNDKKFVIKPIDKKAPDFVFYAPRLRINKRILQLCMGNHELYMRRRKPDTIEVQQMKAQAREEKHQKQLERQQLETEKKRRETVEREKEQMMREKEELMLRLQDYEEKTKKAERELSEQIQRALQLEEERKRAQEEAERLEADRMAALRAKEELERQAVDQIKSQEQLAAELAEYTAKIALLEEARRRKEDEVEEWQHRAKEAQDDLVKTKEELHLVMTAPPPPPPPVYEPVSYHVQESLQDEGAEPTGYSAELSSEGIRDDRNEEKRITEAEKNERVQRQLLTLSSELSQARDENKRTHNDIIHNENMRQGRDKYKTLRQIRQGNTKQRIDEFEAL
UniProt P26038: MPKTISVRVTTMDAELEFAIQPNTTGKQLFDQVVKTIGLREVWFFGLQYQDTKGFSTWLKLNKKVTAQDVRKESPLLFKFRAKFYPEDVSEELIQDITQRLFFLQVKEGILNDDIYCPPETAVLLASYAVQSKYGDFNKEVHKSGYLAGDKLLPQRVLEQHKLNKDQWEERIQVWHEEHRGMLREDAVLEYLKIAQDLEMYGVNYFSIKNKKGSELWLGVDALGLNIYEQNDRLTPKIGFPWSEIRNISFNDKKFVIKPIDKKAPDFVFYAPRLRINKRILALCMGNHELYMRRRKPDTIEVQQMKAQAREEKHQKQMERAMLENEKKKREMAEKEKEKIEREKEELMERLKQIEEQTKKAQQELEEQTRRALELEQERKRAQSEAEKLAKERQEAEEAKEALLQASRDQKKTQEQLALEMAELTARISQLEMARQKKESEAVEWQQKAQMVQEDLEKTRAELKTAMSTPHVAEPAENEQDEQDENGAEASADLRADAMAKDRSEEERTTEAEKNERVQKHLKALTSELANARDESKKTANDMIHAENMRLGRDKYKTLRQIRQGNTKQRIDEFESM
UniProt O14745: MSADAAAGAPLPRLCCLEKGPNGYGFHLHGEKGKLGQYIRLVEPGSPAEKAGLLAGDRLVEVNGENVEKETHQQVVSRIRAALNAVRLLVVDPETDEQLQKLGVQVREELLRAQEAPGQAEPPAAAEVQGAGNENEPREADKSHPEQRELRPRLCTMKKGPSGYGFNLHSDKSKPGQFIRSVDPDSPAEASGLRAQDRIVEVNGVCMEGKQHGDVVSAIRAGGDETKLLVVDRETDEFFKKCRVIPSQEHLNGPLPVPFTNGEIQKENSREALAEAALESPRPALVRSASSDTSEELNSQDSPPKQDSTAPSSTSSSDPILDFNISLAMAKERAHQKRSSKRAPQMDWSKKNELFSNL
UniProt Q15599: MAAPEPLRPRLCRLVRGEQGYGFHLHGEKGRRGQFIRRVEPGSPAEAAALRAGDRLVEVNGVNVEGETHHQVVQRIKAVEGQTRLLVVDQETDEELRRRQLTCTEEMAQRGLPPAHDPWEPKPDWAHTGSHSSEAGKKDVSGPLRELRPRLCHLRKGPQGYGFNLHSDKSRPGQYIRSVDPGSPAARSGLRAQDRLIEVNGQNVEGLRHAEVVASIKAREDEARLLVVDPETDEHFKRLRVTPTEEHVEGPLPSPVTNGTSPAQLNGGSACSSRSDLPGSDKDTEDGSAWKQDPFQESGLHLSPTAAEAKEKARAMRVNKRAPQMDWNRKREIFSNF
UniProt P35241: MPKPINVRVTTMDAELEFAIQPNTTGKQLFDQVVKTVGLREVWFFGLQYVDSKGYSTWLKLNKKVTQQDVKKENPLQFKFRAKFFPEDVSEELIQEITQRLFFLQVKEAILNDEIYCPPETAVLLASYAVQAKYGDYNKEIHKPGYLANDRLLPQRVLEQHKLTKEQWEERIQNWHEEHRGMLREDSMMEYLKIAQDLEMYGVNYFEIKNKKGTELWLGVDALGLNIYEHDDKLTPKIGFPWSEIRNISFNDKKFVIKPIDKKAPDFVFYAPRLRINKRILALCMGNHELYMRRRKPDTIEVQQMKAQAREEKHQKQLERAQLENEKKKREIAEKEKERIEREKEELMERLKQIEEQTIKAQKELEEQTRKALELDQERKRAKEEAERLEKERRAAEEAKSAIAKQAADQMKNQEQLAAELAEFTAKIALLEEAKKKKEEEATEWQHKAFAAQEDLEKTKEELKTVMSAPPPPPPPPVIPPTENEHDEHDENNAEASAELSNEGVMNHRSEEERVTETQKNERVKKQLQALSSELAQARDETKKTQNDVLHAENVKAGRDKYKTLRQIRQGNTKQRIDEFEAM

Substance | binding
Ezrin (from UniProt P15311 1-586) | no binding
Moesin (from UniProt P26038 1-577) | no binding
Na+/H+ exchange regulatory cofactor (NHE-RF) 1 (from UniProt O14745 1-358) | no binding
Na+/H+ exchange regulatory cofactor (NHE-RF) 2 (from UniProt Q15599 1-337) | no binding
Radixin (from UniProt P35241 1-583) | no binding

Reference: paper PMC6376265, “A sequence conserved between CD5 and CD6 binds an FERM domain and exerts a restraint on T‐cell activation” (Immunology, 2018)
